Our source for the IC50 values is patent US10087172B2, “Compounds and their methods of use” (AGIOS PHARMACEUTICALS, INC, priority 2012, dated 2018).

By UniProt entry, the sequences of proteins in these tests, tags left out. Residues count along the entry.
UniProt O94925, 55-598 isoform 3 limits assumed: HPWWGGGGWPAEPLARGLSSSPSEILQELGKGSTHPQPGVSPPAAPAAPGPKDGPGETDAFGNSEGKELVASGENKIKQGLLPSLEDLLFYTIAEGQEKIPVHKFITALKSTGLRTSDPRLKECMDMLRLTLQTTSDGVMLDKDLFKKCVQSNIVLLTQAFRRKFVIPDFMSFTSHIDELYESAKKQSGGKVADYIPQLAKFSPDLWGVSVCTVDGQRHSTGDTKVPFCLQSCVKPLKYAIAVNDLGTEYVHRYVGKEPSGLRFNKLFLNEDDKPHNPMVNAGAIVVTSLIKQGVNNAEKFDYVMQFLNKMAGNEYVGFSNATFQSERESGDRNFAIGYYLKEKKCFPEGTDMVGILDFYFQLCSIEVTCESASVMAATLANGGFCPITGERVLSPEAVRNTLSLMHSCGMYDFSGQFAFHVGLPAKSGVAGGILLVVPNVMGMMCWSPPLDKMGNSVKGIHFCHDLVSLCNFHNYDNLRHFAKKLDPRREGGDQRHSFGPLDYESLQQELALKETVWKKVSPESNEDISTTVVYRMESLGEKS

Structures were worked out from names or drawings and are uncertain.

Usually IC50 stands for the concentration needed to halve the response being measured.

The target of this assay is glutaminase (GAC) (Homo sapiens, UniProt O94925). Kind of assay: Glutaminase (GAC) coupled endpoint enzymatic assay (glutamate dehydrogenase/diaphorase/resazurin, Ex544/Em590). Conditions: inhibition of glutaminase, tested in an assay of Example A or Example B; class symbols A-E. (Alamar Blue is a resazurin reagent that responds to reducing activity.)

For `O=C(Cc1cccc(C(F)(F)F)c1)Nc1nnc([C@H]2CCC[C@H](c3nnc(NC(=O)Cc4cccc(C(F)(F)F)c4)s3)C2)s1`, the IC50 was 0.5 to 1 µM.
